According to PubChem BioAssay AID493014 (National Center for Advancing Translational Sciences (NCATS), 2011):
Values joined by “and” are separate entries in the source; they are usually repeats but may differ in a detail not shown here. Identical values can stand only once. This is one part of the list. These are further read-outs of the screen, such as a control signal, another cell line or another target. No call is given for them. Most of these compounds were active or inconclusive in the main read-out, so they are no random draw. Potencies come from curve fits of mixed quality, noted in brackets.

Assay: qHTS Assay to Find Inhibitors of Chronic Active B-Cell Receptor Signaling
Conditions: ABC-DLBCL IkBa-CBG/CBR reporter, luminescence ratio (green luciferase fused to IkBa over red control in TMD8 lymphoma cells), 4 h
Procedure, shortened: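 Concentration-response series (up to 46 uM) were applied to TMD8 dual-reporter cells for 4 h at 37C with doxycycline. Green/red ratio, after filter-overlap correction, defined %Activity; red signal alone was normalised to basal cells and zero luminescence.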

[1] = measured here: CBR red luminescence, cell number
[2] = measured here: IkBa-CBG green luminescence

SMILES | AC50 [1] | AC50 [2]
CCNC(=S)NC(=NCc1cccnc1)Nc1nc(C)cc(C)n1 | 15.8 µM [rising, single point] | 
O=C(Nc1nc2ccc(Br)cc2s1)c1ccco1 | 11.2 µM [falling, partial curve] | 
Cc1cc(C)c2c(CC(=O)NC(C)C)coc2c1 | 35.5 µM [rising, single point] | 
O=C(CSc1nnnn1-c1ccc(O)cc1)c1ccc(F)cc1 | 0.447 µM [falling, full curve, poor fit] | 
Cc1[nH]nc2c1[C@@H](c1ccccc1[N+](=O)[O-])C(C#N)=C(N)O2 | 15.8 µM [falling, single point] | 
COc1ccc(/C=N/Nc2nc(-c3ccc(Cl)cc3)cc(C(F)(F)F)n2)cc1OC |  | 23.1 µM [rising, partial curve, poor fit]
CC1=NN(c2ccccc2)C(=O)/C1=C\c1ccc(Oc2ccc([N+](=O)[O-])cc2[N+](=O)[O-])cc1 | 16.4 µM [falling, partial curve] | 
CC1CCN(c2nc3ccccc3nc2C(C#N)C(=O)NC2CCCCC2)CC1 (stereo unspecified) | 4.11 µM [falling, partial curve, poor fit] | 
Cc1ccc(S(=O)(=O)Nc2ccc3c(c2)nc(CCN2CCOCC2)n3C)cc1 | 22.4 µM [falling, single point] | 
c1ccc(-c2nc(-c3ccccn3)no2)cc1 | 8.2 µM [falling, partial curve] | 
O=C(NCc1ccco1)Nc1ccc(OC(F)(F)F)cc1 | 35.5 µM [falling, single point] | 
CC(=O)NC(CC(=O)NC1CCCCC1)c1ccccc1 (stereo unspecified) | 0.58 µM [rising, full curve, poor fit] | 
CCCCOc1ccc(CSC2=NCCN2)cc1[N+](=O)[O-] | 18.4 µM [falling, partial curve] | 
COc1ccc(Nc2nc(-c3ccccc3F)nc3ccccc23)cc1OC | 7.94 µM [falling, partial curve] and 7.08 µM [falling, partial curve, poor fit] | 
Cc1ccc(OC(=O)c2cc3ccccc3o2)cc1 | 0.411 µM [falling, partial curve, poor fit] | 
O=C1CSC(=S)N1N1C(=O)c2cccc([N+](=O)[O-])c2C1=O | 0.794 µM [rising, partial curve] | 
Cc1cc(SCC(=O)c2ccccc2)nc(=O)[nH]1 | 7.08 µM [falling, partial curve] | 
O=C(Cc1ccc(Cl)cc1)Nc1ccc(-c2nnc(-c3ccco3)o2)cc1 | 7.08 µM [rising, partial curve, poor fit] | 
Cc1ccccc1Nc1nnc(SCC2CCCCO2)s1 (stereo unspecified) | 32.6 µM [falling, single point] | 
O=C(COC(=O)CN1C(=O)C(=O)c2ccccc21)OCN1C(=O)c2ccccc2C1=O | 29.1 µM [rising, single point] | 
CN1CCN(C(=O)c2ccc3c(=O)n(-c4ccc(F)cc4)c(=S)[nH]c3c2)CC1 | 12.6 µM [falling, partial curve, poor fit] | 
O=C(CSc1nnc(-c2ccccc2)c(-c2ccccc2)n1)NCc1ccco1 |  | 18.4 µM [rising, partial curve, poor fit]

SMILES | AC50 [1] | AC50 [2]
CCOc1cc(N2CCOCC2)c(OCC)cc1NC(=O)CN1CCCC(C)C1 (stereo unspecified) | 6.51 µM [rising, single point] | 
CSc1ccc(/C=C/C(=O)Nc2ccccc2)cc1 | 1.41 µM [falling, partial curve] | 
CCOC(=O)c1ccc(N/C=C/C(=O)c2ccc(OC)cc2)cc1 | 0.316 µM [falling, full curve] | 
N#Cc1cnc(NOCc2ccc(Cl)cc2)nc1 | 15.8 µM [rising, partial curve, poor fit] | 
COCCNC(=O)C(c1ccc(C)o1)N(C(=O)c1snc(C(N)=O)c1N)c1cccc(C)c1 (stereo unspecified) | 22.4 µM [rising, single point] | 
COc1ccc(/C=C/C(=O)OCC(=O)Nc2ccc(Cl)c(S(=O)(=O)N(C)C)c2)cc1OC | 29.1 µM [falling, single point] | 
O=c1cc(O)c2sc3nc(-c4ccccc4)cc(C(F)(F)F)c3c2[nH]1 | 5.8 µM [falling, full curve] | 
OC(CN1CCN(c2ccc(F)cc2)CC1)c1ccc(Cl)cc1 (stereo unspecified) | 1.58 µM [rising, partial curve] | 
Cc1cc(C(=O)N/N=C/c2ccncc2)c(C)o1 | 11.2 µM [falling, partial curve] | 
Cc1ccc(CNC(=O)c2ccc(Cn3cc(-c4ccc(C)cc4)nc3-c3ccncc3)cc2)cc1 | 35.5 µM [falling, single point] | 
COc1ccc(C(=O)Nc2ccc(-c3cn4ccsc4n3)cc2)cc1S(=O)(=O)N1CCOCC1 | 15.8 µM [rising, partial curve, poor fit] | 
COC(=O)c1ccc(NC(=S)NCCc2ccccc2C)cc1 | 5.8 µM [falling, partial curve] | 
Cc1cccn2c(=O)c(C(=O)NC3CC(C)CC(C)(C)C3)c(O)nc12 (stereo unspecified) | 3.66 µM [rising, full curve, poor fit] | 
O=C(Nc1ccon1)Nc1cc(Cl)ccc1Cl | 22.4 µM [rising, partial curve, poor fit] | 
Cc1ccc2nc(-c3ccccc3)oc(=O)c2c1 | 1.78 µM [falling, full curve] | 
Cc1ccc2cc(C#N)c(N3CCCN(C(=O)c4cnccn4)CC3)nc2c1 | 11.2 µM [rising, partial curve, poor fit] | 
OC1CCN(c2c3c(nc4cc(-c5ccc(Cl)cc5)nn24)CCC3)CC1 | 5.8 µM [rising, partial curve] | 
N#CCCn1c(SCC(=O)c2c[nH]c3ccccc23)nc2ccccc21 | 2.82 µM [falling, full curve, poor fit] | 
O=C(NCc1ccccc1)c1ccc(CS(=O)(=O)c2ccccc2)o1 | 6.51 µM [falling, single point] | 3.26 µM [rising, partial curve, poor fit]
CCOc1ccc(/C=N/n2c(C3CCCCC3)n[nH]c2=S)cc1 | 0.794 µM [rising, full curve, poor fit] | 
OCCN1CCN(Cc2cc(Cl)c3cccnc3c2O)CC1 | 2.06 µM [falling, single point] | 20.6 µM [falling, single point]
FCCCOc1ccc(-c2nccc(-c3ccccn3)n2)cc1 | 0.224 µM [rising, full curve, poor fit] | 

SMILES | AC50 [1] | AC50 [2]
Cc1ccc(-c2cn(C[C@H]3CC[C@@H]([C@@H]4CC[C@H](Cn5cc(-c6ccc(C)cc6)nn5)O4)O3)nn2)cc1 | 0.2 µM [falling, full curve, poor fit] | 
Cc1ccc(-c2cc(C(F)F)nc(NCC3CCCO3)n2)cc1 (stereo unspecified) | 7.31 µM [rising, partial curve, poor fit] | 
COc1ccc(CCN2CN(S(=O)(=O)c3ccccc3)c3nc4ccccc4nc32)cc1 | 29.1 µM [falling, single point] | 
COc1cc(C(=O)OCC(=O)Nc2ccc(C)cc2)cc(OC)c1OC | 17.8 µM [falling, single point] | 
Cc1cc(C(=O)Nc2sc3c(c2C#N)CCCC3)no1 | 29.1 µM [falling, single point] | 
CCCCCc1nnc(NC(=O)Cc2cccs2)s1 | 8.2 µM [rising, partial curve] | 
O=C(Nc1cccnc1)c1cn(-c2ccccc2)nc1-c1cccs1 | 4.47 µM [falling, partial curve, poor fit] | 
NS(=O)(=O)c1ccc(Nc2nc(-c3ccc(O)cc3)cs2)cc1 | 0.92 µM [falling, full curve, poor fit] | 
COc1cc(C(=O)NC2(C(F)(F)F)NC(=O)N(CCCc3ccccc3)C2=O)cc(OC)c1OC (stereo unspecified) | 2.31 µM [rising, full curve] | 
Brc1ccccc1-c1nnc(SCc2nc3ccccc3s2)o1 | 4.11 µM [rising, partial curve, poor fit] | 
Cc1noc(C)c1COC(=O)CCc1ccc(S(=O)(=O)N2CCCCC2)cc1 | 0.1 µM [falling, full curve] | 
O=C(NC1CCCCC1)c1ccc2c(c1)N(Cc1cccc(Cl)c1)C(=O)c1ccccc1S2=O (stereo unspecified) | 0.794 µM [rising, full curve, poor fit] | 
CCc1cc(C(=O)N2CCCC(CNS(=O)(=O)c3cccs3)C2)n(C)n1 (stereo unspecified) | 5.62 µM [rising, single point] | 
CCOC(=O)C1(Cc2ccccc2C)CCCN(C(=O)c2ccc(COC)o2)C1 (stereo unspecified) | 28.2 µM [falling, single point] | 
Cc1ccc(C(N)=O)cc1S(=O)(=O)Nc1cccc(C)c1C | 0.00461 µM [falling, full curve, poor fit] | 
Cc1ccc(C(=O)NN2C(=O)/C(=C/c3cccn3C)SC2=S)cc1 | 10.3 µM [falling, partial curve, poor fit] | 
Cc1ccccc1OCc1csc(N)n1 | 35.5 µM [falling, single point] | 
Cc1cccc2sc(N(Cc3cccnc3)C(=O)COc3ccccc3)nc12 | 35.5 µM [falling, single point] | 
O=C(NCCCl)C1Cc2c(ccc3ccccc23)O1 (stereo unspecified) | 35.5 µM [falling, single point] | 
O=C(N/N=C/c1c[nH]c2ccccc12)c1ccccc1Cl | 3.98 µM [falling, partial curve, poor fit] | 
